From article PMC10163288
Some of the results follow.

B1: il10ra_site1_normal_mot_HHH_b2_06954_000000276_0001_1_20_H_._HHH_b2_04149_0001_0000200004_0000001_0_af2pred_0001 (protein)
chain: SSSSSEEEEIKEALLLAARVFAHLTDPELAQELARLALELARTGDPELAEELFELARELGSSSSS
B2: il10ra_site1_sap_8_mot_05ca327611f5605f0dd8494b449afcbf_0001_1_000000248_0001_35_51_H_._HHH_b2_07461_af2_0001_0000100001_0000001_0_0001 (protein)
chain: SSSSQESYRLAREFIEEIIRLQEEGDREEAERLAEELLELLRELGDQNTTYAVEVLLRAVRSSSS
B3: il10ra_site1_sap_19_mot_HHH_b1_03460_000000139_0001_1_20_H_._HHH_b2_01396_0001_0000100015_0000001_0_0001 (protein)
chain: SSSSDEERQRAIRLAQHAIRYALKRNDPELLRELWELIHRLAREGDPELAEELAELAERILSSSS
B4: il10ra_site1_normal_mot_HHH_b2_00475_000000002_0001_44_57_H_._HHH_b1_01360_0002_0000100003_0000002_0_af2pred_0001 (protein)
chain: SSSSSSEELLELAEKSIELAEELGDEEKIRIAAHALFNTAKNLNDPEALRFAEEVLERVNSSSSS
B5: il10ra_site1_normal_mot_HHH_b1_05098_000000185_0001_1_18_H_._HHH_b1_08425_0001_0000400026_0000001_0 (protein)
chain: SSSSDEEKQRLLELSLEAFRLALRGNPEEARKVVEEAEELAEELNNEELLRTIRELLQALSSSSS
B6: il10ra_site1_sap_22_mot_HHH_b1_06128_000000102_0001_1_20_H_._HHH_b2_03538_af2_0001_0000200012_0000002_1_0001 (protein)
chain: SSSSDREERIKELQEEIEELIERNDREEALRLLMEALRLAYEAGDEELLRELWELLHLVRSSSSS
B7: il10ra_site1_sap_18_mot_HHH_b1_08446_000000041_0001_1_19_H_._HHH_b1_03012_0001_0000700024_0000001_0_0001 (protein)
chain: SSSSDEAYERLRKLVELIHEATSEEEEEELREELERLEREARENGDWIVVMQIEFLLEELNSSSS
B8: il10ra_site1_normal_mot_HHH_b2_03346_af2_000000019_0001_1_18_H_._HHH_b2_07961_0001_0000300037_0000001_0_af2pred_0001 (protein)
chain: SSSSDRIEEALELTLRLLERLLELGNEEAFKSLFHAARLLAERHNDEEVEEELERLEELLESSSS
B9: il10ra_site1_sap_19_mot_HHH_b2_03220_af2_000000223_0001_23_40_H_._HHH_b1_07137_af2_0001_0000600011_0000001_0_0001 (protein)
chain: SSSSDSREIYRLSREAAELAREGNPEEARELLRKALELAEELNDMILFHLVEWLLEMLEGSSSSS
B10: il10ra_site1_normal_mot_42c349ed7ecc24df8868883d370ad53f_0001_000000116_0001_19_33_H_._12f07e73ac0f89cdf9148c08efb246fb_0001_1_0001_0000300016_0000001_0_af2pred … (protein)
chain: DALAALEAAWAAGDAERATALIKELALKAGEEQDPRLEAVVRLLSNAFLANDPALLAQARAAYLE
B11: il10ra_site1_normal_mot_HHH_b1_05083_af2_000000148_0001_42_57_H_._HHH_b2_01401_af2_0001_0000100010_0000001_0_af2pred_0001 (protein)
chain: SSSSSEEVQEIIEIIREAAKANSEGDKEEAKRLLEEAEELAEELGNVLLRFIIEWLLRRISSSSS
B12: il10ra_site1_sap_22_mot_HHH_b1_07466_000000214_0001_1_19_H_._HHH_b2_06153_0001_0000200020_0000002_0_0001 (protein)
chain: SSSSDEEEELVEAALRLVEQIRKWGDPRAARFHLWSAEFVAREINNPELERLVEELEEELNSSSS
B13: il10ra_site1_normal_mot_HHH_b2_02053_af2_000000006_0001_3_19_H_._HHH_b2_05497_0001_0000200022_0000003_0 (protein)
chain: SSSSSEEREELYKLLRKALELFAKGDPEEAREVLEEALQLAEELNNRLFLFSLRHLLRALSSSSS
B14: il10ra_site1_sap_16_mot_HHH_b1_04693_000000238_0001_19_36_H_._HHH_b2_05159_0001_0000200012_0000001_0_0001 (protein)
chain: SSSSSEIEEYREEIEKLLEEGNWEEAMRLLVEAVRLALRLGDPELLRELWELIKEVAERRQSSSS
B15: il10ra_site1_sap_22_mot_HHH_b1_03314_af2_000000278_0001_42_55_H_._HHH_b2_04189_0001_0000400020_0000001_0_0001 (protein)
chain: SSSSDLKEEAEELAEEAQELAEERGDRAAVYLLRQALEALRLAGDPRAARQLYELARIVLSSSSS
B16: il10ra_site1_normal_mot_HHH_b2_05813_000000266_0001_1_19_H_._HHH_b1_07280_0001_0000100002_0000001_0_af2pred_0001 (protein)
chain: SSSSSLEEEVLELIIEAQRLLQKGNPEEAERVLEEALEIAREKGNPRLAHIIERLEEMVERSSSS
B17: il10ra_site1_normal_mot_745ba417a8ead33aea5db1974d5d2f48_0001_1_af2_000000024_0001_16_30_H_._HHH_b2_02882_0001_0000100006_0000001_0_af2pred_0001 (protein)
chain: SSSSDEEKLRLALKSLKHLLELGDEERAKLAVEILLRTAEYNGDEEVREILEEILERLENSSSSS
B18: il10ra_site1_normal_mot_HHH_b1_01827_000000263_0001_1_19_H_._HHH_b2_07433_0001_0000500029_0000001_0_af2pred_0001 (protein)
chain: SSSSSTEEVERVIKLIRRALEIEDEEERRRLLEEAVELAEEGGNLVLLISARFALEDVEQSSSSS
B19: il10ra_site1_normal_mot_HHH_b2_08265_af2_000000206_0001_22_38_H_._HHH_b2_06195_0001_0000100007_0000001_0 (protein)
chain: SSSSSDEEVEELEREIRELLEEGDPEEALRLLQRLVQLAFRLSDQEAIRIAWELAKLIASSSSSS
B20: il10ra_site1_sap_22_mot_HHH_b1_07803_af2_000000186_0001_43_57_H_._09770d796a13084421b44ad29b674de3_0001_1_0001_0000200005_0000001_0_0001 (protein)
chain: SSSSSSEELRQYHEELEELTEEGDKDRVIELLQEALRAAYQNRDEEILQLLWEIAKEVAKSSSSS
B21: il10ra_site1_normal_mot_HHH_b1_07380_000000129_0001_1_20_H_._HHH_b1_02603_0001_0000100003_0000001_0 (protein)
chain: SSSSDEAEEIYELSRKAAEALAEGNPEEARELVEQALELAEEANNFALAFALRLLLRQINSSSSS
B22: il10ra_site1_normal_mot_HHH_b1_03900_000000129_0001_1_16_H_._HHH_b1_02560_0001_0000400024_0000001_0 (protein)
chain: SSSSREEVYRLVKEIARALIRNDPELVERLLEELREVVEEYNDKAAEELLRILEEAFRATTSSSS
B23: il10ra_site1_normal_mot_HHH_b1_08697_af2_000000298_0001_1_18_H_._HHH_b1_07013_0001_0000400015_0000001_1_af2pred_0001 (protein)
chain: SSSSSERAIKLHLLLARLAFELNDRKALEAATHAARALVKRFKDPELEELLREIEELLEELSSSS
B24: il10ra_site1_sap_21_mot_HHH_b1_05357_000000034_0001_23_39_H_._HHH_b2_05349_0001_0000600054_0000001_0_0001_af2pred_0001 (protein)
chain: SSSSNREQRVAELLARALRAAAEGNPEEAERLLEEARELAEELNDEELERAIEILKRYVERSSSS
B25: il10ra_site1_normal_mot_ems_3hM_3637_000000290_0001_1_19_H_._HHH_b2_03486_0001_0000200022_0000001_0 (protein)
chain: SSSSREEAEEAYELLREALELRAEGDEEEAKRVLQEAFEVAEEGGNQAILFAIEYLLEKLNSSSS
B26: il10ra_site1_sap_13_mot_HHH_b2_04275_000000272_0001_20_36_H_._HHH_b1_05781_0001_0000400050_0000002_1_0001_af2pred_0001 (protein)
chain: SSSSSKEVKAAKLTIRALEAAANGDPEEARELLEQAKELAEELNDEELQRIIENSEEQVNSSSSS
B27: il10ra_site1_sap_4_mot_HHH_b1_06788_af2_000000238_0001_19_36_H_._HHH_b1_07633_0001_0000100010_0000001_0_0001 (protein)
chain: DEELEHLLELLEKLLPPELRRAVRFWLHILEMGVVPPERVIQALEVMARAAGDPEVERLLEEVKK
B28: il10ra_site1_sap_11_mot_HHH_b2_00943_af2_000000149_0001_1_17_H_._654b43168d24a4fb17a944576add0ed3_0001_af2_0001_0000500018_0000002_0_0001 (protein)
chain: SSSSSDEEELEELIREIEELLKNGNPKEAVRLAQRAVRLAYRLNDEEALRELWELVQEAGSSSSS
B29: il10ra_site1_normal_mot_HHH_b2_08186_000000021_0001_43_56_H_._HHH_b1_02298_af2_0002_0000300029_0000001_0 (protein)
chain: SSSSDEEVEELIQEAEELLERGNPEEALEVVRRALQLAFELGDAELLQRLWELLKRIAKLSSSSS
B30: il10ra_site1_normal_mot_HHH_b2_01986_af2_000000130_0001_1_18_H_._HHH_b2_08065_0001_0000200013_0000001_0 (protein)
chain: SSSSSDEAQRVWELIREAFELYRRGNPEEAQRLLEEAEELAEEGNNPWLESNVRRALRQLSSSSS
B31: il10ra_site1_sap_23_mot_HHH_b1_06348_000000162_0001_1_15_H_._HHH_b1_08027_0001_0000100008_0000001_0_0001 (protein)
chain: SSSSRSERVWELIREALELLANGNPEEAREVLEEAEELAREANSWILERNVELLLRDVELRSSSS
B32: il10ra_site1_normal_mot_HHH_b1_06125_000000022_0001_1_19_H_._HHH_b1_03671_af2_0001_0000200007_0000001_0 (protein)
chain: SSSSDDEALKLSLEALRLALRGNPEEAQEVAEKALELAEEEGDERLARIIEELLQTIRNQSSSSS
B33: il10ra_site1_normal_mot_HHH_b1_08440_000000140_0001_1_20_H_._HHH_b1_00906_af2_0001_0000100001_0000001_0 (protein)
chain: SSSSDLEEEVEELLEELKQAKSQEEFAELALRVLRVAIESSDPELLEEVWEVIKRVAERLSSSSS
B34: il10ra_site1_sap_19_mot_HHH_b1_02591_000000249_0001_1_18_H_._HHH_b1_01157_0001_0000300022_0000001_0_0001 (protein)
chain: SSSSDNIERVVEFVKRALEALARAGDEEHVETLARVVLEHLERAGNEELFEELEEFVRELLSSSS
B35: il10ra_site1_sap_16_mot_802863e75c239dc72d0ffd0be86c571b_0001_1_000000009_0001_36_49_H_._HHH_b1_01385_0001_0000100003_0000001_1_0001 (protein)
chain: SSSSDEEVRQRLRALLWFARQISNREAARLAVREAAELAKEEGDEELLREIEELLEELENSSSSS
B36: il10ra_site1_normal_mot_HHH_b1_00999_000000080_0001_41_55_H_._HHH_b2_05235_0001_0000400024_0000001_0 (protein)
chain: SSSSSSDVEELLEEAQELRERGNPKEALEVLQRAVRHIFELGDKELLQELWELVRRIGSSSSSSS
B37: il10ra_site1_sap_16_mot_HHH_b2_02053_af2_000000006_0001_3_19_H_._HHH_b2_05522_0001_0000600036_0000001_0_0001 (protein)
chain: SSSSSEVEEEVEELIREVEEALRQGDSHKAAQLLIEAVEIAAENNNPELIRELAKLSREIFSSSS

biological target: il10ra, Q13651; assay: yeast display titration

Apparent Kd, inactive:
B1 no binding seen
B2 no binding seen
B3 no binding seen
B4 no binding seen
B5 no binding seen
B6 no binding seen
B7 no binding seen
B8 no binding seen
B9 no binding seen
B10 no binding seen
B11 no binding seen
B12 no binding seen
B13 no binding seen
B14 no binding seen
B15 no binding seen
B16 no binding seen
B17 no binding seen
B18 no binding seen
B19 no binding seen
B20 no binding seen
B21 no binding seen
B22 no binding seen
B23 > 279 nM
B24 no binding seen
B25 no binding seen
B26 no binding seen
B27 no binding seen
B28 no binding seen
B29 no binding seen
B30 no binding seen
B31 no binding seen
B32 no binding seen
B33 no binding seen
B34 no binding seen
B35 no binding seen
B36 no binding seen
B37 no binding seen

A section of the results above, as a working copy:
Apparent Kd, inactive:
B23 > 279 nM
B24 no binding seen
B25 no binding seen
B26 no binding seen
B27 no binding seen
B28 no binding seen
